In series [1] the test system is D-Apt49. Put plainly: Homogeneous electrochemical competitive binding assay in Tris buffer. The conditions noted are these: for ip^(∞) /ip^0: 5 µM Fc-L-Tym. How it is done: (§1) All experiments were performed in 5 mM Tris buffer (pH 7) containing 10 mM MgCl2 and 50 mM NaCl (Recognition Buffer, RBr). The L-Tym concentration is always 5 µM. For cyclic voltammetric experiments, 1 µM [Os(bpy)3]2+ with 5 µM 1-Tym in a droplet of 50 µL RBr was used. So, before each experiment, the droplet is shaking with a micropipette. This procedure is repeated until we obtain a reproducible and stable voltammogram. Mother solution of Fc-1-Tym was a […] solution in DMF. This product is conserved at 4°C and seal with parafilm. Before each experiment, this solution is diluted 10 times in stabilized DMF, such as 0.2 µL in 50 µL of RBr leads to 5 µM of Fc-1-Tym.
Cyclic voltammetry measurements were performed with an AUTOLAB PGSTAT 12 potentiostat/galvanostat controlled by computer, and the data were acquired using GPES 4.9007 software (EcoChemie, The Netherlands). Small self-contained electrochemical cells made of 3 screen-printed electrodes on a flat substrate were used for all experiments. The electrodes were printed using a DEK model-65 screen-printer. Working electrodes were 4 mm diameter screen-printed carbon electrodes prepared using a commercial carbon ink (Electrodag PF-470 A) deposited on the top of an underlying Ag layer (Electrodag 418 SS). Counter electrode was obtained using an Ag ink (Electrodag 418 SS).
Before experiments, the screen-printed carbon electrodes were coated with bovine serum albumin (BSA) by immersing the electrodes in a 1 mg/mL BSA solution for 10 minutes at room temperature. […]
(§2) The competitive assay can be described by the two equilibrated binding reactions 6a and 6b, in which Fc-L-Tym is L-tyrosinamide labeled by a redox-active ferrocene group. […] Note that under this condition the catalytic oxidation of the phenolic residue is no more possible and only the ferrocene labeled molecule can be detected. […] The value of K^*d was determined by monitoring in CV the reversible response of 5 µM Fc-L-Tym solution as a function of increasing concentrations of D-Apt49. […]

For series [2], the system named is D-Apt49. Nature of the series: Cyclic voltammetry titration of ferrocene-labeled target with aptamer. Type of series: binding. How it is done: as §1
Cyclic voltammetry measurements were performed with an AUTOLAB PGSTAT 12 potentiostat/galvanostat controlled by computer, and the data were acquired using GPES 4.9007 software (EcoChemie, The Netherlands). […]
as §2

Series [3] relates to D-Apt49. Nature of the series: Homogeneous electrochemical competitive binding assay in 20% fetal bovine serum. The conditions noted are these: 5 µM Fc-L-Tym. How it is done:
• Figure 1: Electrochemically competitive assay of the invention. Left-hand column: before the addition of the sample: a first redox signal is measured. Right-hand column: after the addition of a sample containing the target to be detected or measured: a second redox signal is measured. (A) Homogeneous electrochemically competitive assay: the presence of the target disrupts the complex formed between the oligonucleotide ligand and the redox-labeled target. […] (B) Heterologous electrochemically competitive assay, wherein the oligonucleotide ligand is attached to a solid phase: the presence of the target disrupts the complex formed between the oligonucleotide ligand and the redox-labeled target, thereby inducing a better detection of the redox labeled-target. […] (C) Heterologous electrochemically competitive assay, wherein the oligonucleotide ligand is attached to the electrode: the presence of the target disrupts the complex formed between the oligonucleotide ligand and the redox-labeled target, thereby reducing the detection of the redox labeled-target. […] (f) CV of 1 µM [Os(bpy)3]^2+ alone. […] Error bars: standard deviations from 3 measurements. […]

As to `NC(=O)[C@@H](N)Cc1ccc(O)cc1` [L-Tym, L-tyrosinamide], the “lowest concentration detected in the presence of excess enantiomer” value in the series with D-Apt49 [1] (in the presence of 5 mM D-Tym, 10 µM D-Apt49, Tris buffer) was 5 µM.
On to `NC(=O)[C@@H](N)Cc1ccc(O[c-]2cccc2)cc1.[Fe+2].c1cc[cH-]c1` [Fc-L-Tym, O-Ferrocenyltyrosynamide], for which the “ip^(∞) /ip^0” value in the series on D-Apt49 [2] (normalized anodic peak current of ferrocene at infinite aptamer concentration, fit in Figure 3B) is recorded as 0.40; in the series with D-Apt49 [1] (3 µM D-Apt49, Tris buffer), 0.44; in the series with D-Apt49 [1] (10 µM D-Apt49, Tris buffer) it was 0.44; with D-Apt49 [3] (40 µM D-Apt49) it was 0.15; in the series with D-Apt49 [3] (100 µM D-Apt49), 0.15. Besides, in the series with D-Apt49 [2] (ratio of Kd of L-Tym to K^*d of Fc-L-Tym), the “K^*d lower than the dissociation constant obtained for L-Tym” value is ~ 2.5 fold.

For the origin of these results see patent EP2657347A1, “Electrochemical competitive assay and use thereof” (Université Paris Diderot - Paris 7, priority 2012, dated 2013).
